Experimental data reported in paper doi:10.1101/2021.10.26.465893.

Amino acid sequences for entries named in this document (tags omitted).
UniProt Q14653: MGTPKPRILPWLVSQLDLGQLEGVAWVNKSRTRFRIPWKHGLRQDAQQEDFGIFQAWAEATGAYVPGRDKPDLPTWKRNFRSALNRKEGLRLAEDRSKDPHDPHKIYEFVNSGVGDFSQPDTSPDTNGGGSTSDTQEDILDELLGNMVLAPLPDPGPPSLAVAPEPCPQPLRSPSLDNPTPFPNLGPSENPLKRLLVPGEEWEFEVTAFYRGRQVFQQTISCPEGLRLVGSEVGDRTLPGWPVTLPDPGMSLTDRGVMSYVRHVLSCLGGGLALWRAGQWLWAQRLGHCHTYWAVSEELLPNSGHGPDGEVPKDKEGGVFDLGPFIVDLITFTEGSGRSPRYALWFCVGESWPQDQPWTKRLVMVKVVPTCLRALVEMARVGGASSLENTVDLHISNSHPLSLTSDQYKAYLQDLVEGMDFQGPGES

Biological target: IRF3 expressed from pCMV-Tag2B-Flag-IRF3 (human) (UniProt Q14653)
Test: affinity purification with mass spectrometry

B1: DDX18 (endogenous, found in the IRF3 nuclear screen) (protein, UniProt Q9NVP1 1-670)
chain: MSHLPMKLLRKKIEKRNLKLRQRNLKFQGASNLTLSETQNGDVSEETMGSRKVKKSKQKPMNVGLSETQNGGMSQEAVGNIKVTKSPQKSTVLTNGEAAMQSSNSESKKKKKKKRKMVNDAEPDTKKAKTENKGKSEEESAETTKETENNVEKPDNDEDESEVPSLPLGLTGAFEDTSFASLCNLVNENTLKAIKEMGFTNMTEIQHKSIRPLLEGRDLLAAAKTGSGKTLAFLIPAVELIVKLRFMPRNGTGVLILSPTRELAMQTFGVLKELMTHHVHTYGLIMGGSNRSAEAQKLGNGINIIVATPGRLLDHMQNTPGFMYKNLQCLVIDEADRILDVGFEEELKQIIKLLPTRRQTMLFSATQTRKVEDLARISLKKEPLYVGVDDDKANATVDGLEQGYVVCPSEKRFLLLFTFLKKNRKKKLMVFFSSCMSVKYHYELLNYIDLPVLAIHGKQKQNKRTTTFFQFCNADSGTLLCTDVAARGLDIPEVDWIVQYDPPDDPKEYIHRVGRTARGLNGRGHALLILRPEELGFLRYLKQSKVPLSEFDFSWSKISDIQSQLEKLIEKNYFLHKSAQEAYKSYIRAYDSHSLKQIFNVNNLNLPQVALSFGFKVPPFVDLNVNSNEGKQKKRGGGGGFGYQKTKKVEKSKIFKHISKKSSDSRQFSH
- binding: binds

No constants are given. Whether binding was seen depends on the method and setting. In cells and extracts the contact can be indirect. A yes stands for co-enrichment or nearness to the bait. Other partners may have been found.
